# Results taken from PubChem BioAssay AID743266 (National Center for Advancing Translational Sciences (NCATS), 2014).
# The chains behind the UniProt entries cited, without tags or fusion partners. Where a name states a change or a piece, a line headed by the entry shows the natural chain unless it says otherwise.
# UniProt Q03431: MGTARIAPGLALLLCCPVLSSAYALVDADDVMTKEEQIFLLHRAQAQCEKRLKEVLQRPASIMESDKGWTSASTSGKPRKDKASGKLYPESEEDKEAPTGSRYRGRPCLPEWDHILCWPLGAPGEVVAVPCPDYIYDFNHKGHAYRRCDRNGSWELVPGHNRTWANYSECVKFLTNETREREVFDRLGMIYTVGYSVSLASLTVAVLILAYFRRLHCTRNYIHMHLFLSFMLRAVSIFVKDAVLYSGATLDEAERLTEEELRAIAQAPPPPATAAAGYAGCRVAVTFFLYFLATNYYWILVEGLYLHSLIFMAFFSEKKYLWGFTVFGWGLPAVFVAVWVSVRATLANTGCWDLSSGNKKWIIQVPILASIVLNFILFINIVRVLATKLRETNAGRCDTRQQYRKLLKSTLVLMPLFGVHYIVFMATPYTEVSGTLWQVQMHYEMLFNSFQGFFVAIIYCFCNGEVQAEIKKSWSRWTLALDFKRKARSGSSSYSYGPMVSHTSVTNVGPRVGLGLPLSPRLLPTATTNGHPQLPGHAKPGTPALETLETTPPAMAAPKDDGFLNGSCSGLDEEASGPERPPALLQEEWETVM
# The campaign covered roughly 410,000 compounds. About 310 (0.076%) were called active. Inconclusive means that the source gave no clear call. Such entries were picked first, then a sample of the others. The call rests on the fitted dose curve; in most records, active means well fitted activation curve with a large enough effect; inconclusive means small, poorly fitted or top-dose-only effect, or another doubt; inactive means no such curve, though single readings can be large or run the other way. Potencies beside an inconclusive call are fits to weak or partial responses and may not hold up.
# Target: Parathyroid hormone/parathyroid hormone-related peptide receptor (Homo sapiens) (UniProt Q03431)
# Experiment: qHTS for PTHR1 Agonists: Primary Screen; further: nearly all actives have a fitted effect of over 55% in size
# Settings: HEK293 GP2 PTHR1 cells, GloSensor cAMP luminescence, 1 h; activation: at 115 µM (top of the series) unless noted; series mostly up to 115 µM
# From the text: The goal of the proposed studies is to discover new compounds that act as potent agonists on the parathyroid hormone receptor type-1 (PTHR1). The PTHR1 plays critical roles in maintaining blood calcium and phosphate levels, as well as in controlling bone remodeling. PTHR1 agonists could thus be useful for treating diseases such as hypoparathyroidism and osteoporosis. In the former disease, an agonist drug would help maintain normal blood calcium and phosphate levels under conditions of parathyroid hormone deficiency. In the latter disease, an agonist drug would stimulate new bone formation and thus reduce the risk of fracture, under conditions of bone fragility, as occurs in aging.
# To that end, we performed a quantitative high-throughput screening (qHTS) of the Molecular Libraries Probe Centers Network (MLPCN) compound libraries at the NIH Chemical Genomics Center (NCGC) for the parathyroid hormone receptor type-1 (PTHR1) using a unique HEK-293-derived cell line (GP2) that expresses the PTHR1 and a glosensor cAMP reporter construct.
# NIH Molecular Libraries Probe Production Centers Network [MLPCN]
# NIH Chemical Genomics Center [NCGC]
# Assay Submitter (PI): Thomas Gardella, Massachusetts General Hospital
# 4 microL are dispensed into a 1536-well micro plate to yield 3,000 cells/well. The plates are then incubated overnight, after which 4 microL of 0.5 mM of BIoTium Luciferin plus 0.5 mM IBMX are added. They are then incubated at 37 degree for one hour before 23 nL of compounds are added through pinning and then incubated at 37 degree again for another hour. After the plates are kept at room temperature for 15 min before they are read on the ViewLux to measure luminescence.
# Potency means the concentration at half of the fitted maximal effect.
SMILES,Potency,activation,outcome
CCCCN1CCc2nc(N3CCN(C)CC3)ncc2C1,"inconclusive: 50.1 µM [activator, partial curve, poor fit]",–,–
Cc1cccc(NC(=O)Cn2c(C(F)(F)F)nc3ccccc32)c1C,"inconclusive: 28.2 µM [activator, single point]",–,–
CCOc1ccccc1CNS(=O)(=O)c1csc(C(N)=O)c1,–,inconclusive: 38.2% [activator],–
Cc1nc(C(=O)Nc2cccc(Cl)c2)nn1-c1cc(OC(C)C)c(Cl)cc1Cl,"inconclusive: 12.6 µM [activator, partial curve]",–,–
COc1ccc(-c2cc3ccccc3n2CC(O)CN2CCCCC2)cc1 (stereo not drawn),–,inconclusive: 37.6% [activator],–
CC(NC(=O)Nc1ccccc1C(F)(F)F)C1CCCO1 (stereo not drawn),–,inconclusive: -32.8% [activator],–
CCn1cc(C(=O)O)c(=O)c2cc(F)c(N3CCN(C(=S)NC(=O)c4ccc(F)cc4)CC3)cc21,–,inconclusive: -63.7% [activator],–
O=C(Cn1cnc2c(cnn2-c2ccc(F)cc2)c1=O)N1CCCc2ccccc21,"inconclusive: 2.82 µM [activator, single point]",–,–
CC1=C(C(=O)Nc2ccc(F)cc2F)C2(CCCCCC2)OC1=O,"inconclusive: 44.7 µM [activator, partial curve, poor fit]",–,–
CC(C)(C)c1nnc(NC(=O)COc2ccc3c(c2)OCO3)s1,–,inconclusive: -30.2% [activator],–
O=C(NCCCN1CCc2ccccc2C1)Nc1ccc(Cl)cc1,"inconclusive: 17.8 µM [activator, partial curve]",–,–
O=C(c1cccnc1)N1CCN(c2ccc(Cl)cc2)CC1,–,inconclusive: -40.1% [activator],–
O=C(NC1CCOc2ccccc21)c1ccc(=O)[nH]c1 (stereo not drawn),"inconclusive: 158 µM [activator, single point]",–,–
CC[C@]1(C(=O)OC)[C@H]2C(=O)N(C)C(=O)[C@H]2[C@H]2CN=C(SC)N21,–,–,inactive
O=C(CCN1CCC(c2ccccc2)C1)c1cccs1 (stereo not drawn),"inconclusive: 35.5 µM [activator, single point]",–,–
CCOC(=O)c1cccc(NC(=O)N2CCC(CN3CCCCCC3)CC2)c1,"inconclusive: 89.1 µM [activator, partial curve, poor fit]",–,–
O=C(Nc1ccc2oc(-c3cccc(Cl)c3Cl)nc2c1)c1cccc(Br)c1,"inconclusive: 8.91 µM [activator, partial curve, poor fit]",–,–
Cc1cc(NC(=O)C(C)SCC(=O)O)no1 (stereo not drawn),"inconclusive: 141 µM [activator, single point]",–,–
COc1cccc(CN2CCN(c3ncccn3)CC2)c1OC,–,–,inactive
CC(=Nc1ccccc1)C1=C(O)C(Cc2ccc(O)cc2)NC1=O (stereo not drawn),–,inconclusive: 35.7% [activator],–
c1ccc(Nc2nc(N3CCCCC3)nc(N3CCCCC3)n2)cc1,–,–,inactive [at 57.5 µM]
CCOC(=O)COc1ccc(S(=O)(=O)NC2CC2)cc1,"inconclusive: 158 µM [activator, single point]",–,–
Cc1cc(C)c(S(C)(=O)=O)c(Oc2ccc(C(C)(C)C)cc2)n1,–,inactive: -28.4%,–

SMILES,Potency,activation,outcome
CC(OC(=O)c1cc2sccc2n1C)C(=O)NCc1ccco1 (stereo not drawn),"inconclusive: 35.5 µM [activator, single point]",–,–
COc1ccc(-c2cnnc(N/N=C/c3ccc(OC)c(OC)c3)n2)cc1,–,inconclusive: -20.4% [activator],–
O=[N+]([O-])c1ccc(C=CC=Cc2ccccc2)cc1,–,–,inactive
O=C(CSc1nnc2ccccn12)NC(=O)c1ccccc1Cl,"inconclusive: 112 µM [activator, single point]",–,–
Cc1ccc(S(=O)(=O)C(C#N)c2nc3ccccc3nc2N2CCN(C)CC2)cc1C (stereo not drawn),"inconclusive: 0.767 µM [activator, full curve, poor fit]",–,–
O=C(N/N=C/c1ccccn1)c1cc(C2CC2)[nH]n1,–,–,inactive
Cc1ccc(NCC(=O)N=Nc2c(O)[nH]c3ccc([N+](=O)[O-])cc23)cc1,–,inconclusive: -36.5% [activator],–
CCN(C(=O)COC(=O)C1CC1)c1c(N)n(Cc2ccccc2)c(=O)[nH]c1=O,"inconclusive: 39.8 µM [activator, partial curve, poor fit]",–,–
CC(C)N(C(=O)c1sc2cc([N+](=O)[O-])ccc2c1Cl)C(C)C,"inconclusive: 39.8 µM [activator, single point]",–,–
COc1ccccc1NC(=O)c1nnn(-c2ccc(F)cc2)c1C,–,inactive: -0.0977%,–
Cc1cc(F)ccc1NC(=O)C(C(C)C)N1Cc2ccccc2C1=O (stereo not drawn),"inconclusive: 141 µM [activator, single point]",–,–
COc1ccc(CNC(=O)c2ccc3c(c2)N(Cc2ccccc2)C(=O)c2ccccc2S3=O)cc1 (stereo not drawn),"inconclusive: 15.8 µM [activator, partial curve, poor fit]",–,–
CN(CC(=O)NCc1ccccc1Cl)S(=O)(=O)c1ccc2c(c1)c(=O)n(C)c(=O)n2C,–,inactive: -6.25%,–
CC(=O)Nc1nc2ccccc2n1Cc1ccc(C)cc1,"inconclusive: 50.1 µM [activator, partial curve, poor fit]",–,–
Cc1ccc(C(O)(C(=O)NNc2ccccn2)c2ccc(C)cc2)cc1,–,inactive: -2.65%,–
COc1ccccc1NC(=O)CSc1nc2nc(C)cc(C)c2c(=O)[nH]1,"inconclusive: 2.51 µM [activator, partial curve, poor fit]",–,–
Cc1ccc(-c2nnn(CC(=O)NC3CCN(Cc4ccccc4)CC3)n2)cc1,"inconclusive: 35.5 µM [activator, single point]",–,–
Cc1cccc(C)c1NC(=O)C1(NC(=O)Cn2cccc([N+](=O)[O-])c2=O)CCCCC1,"inconclusive: 22.4 µM [activator, partial curve, poor fit]",–,–
COc1cc(OC)c(OC)cc1CN(C)C(c1ccccc1)c1nnnn1-c1ccccc1C (stereo not drawn),–,inactive: -14.8%,–
Cc1cc(C(F)(F)F)nn1CC(=O)N1CCCC1,"inconclusive: 126 µM [activator, single point]",–,–
COc1ccccc1CCNCc1ccc(OC)c(OCc2ccccc2)c1,"inconclusive: 28.2 µM [activator, partial curve, poor fit]",–,–
Cc1nc(S/C(=C/c2ccc(-c3ccc(C(=O)O)cc3)o2)C(=O)O)n[nH]1,"inconclusive: 126 µM [activator, single point]",–,–
COc1ccc(CNC(=O)COC(=O)c2ccc(Br)cc2)cc1,"inconclusive: 112 µM [activator, single point]",–,–

SMILES,Potency,activation,outcome
CC(=O)Nc1ccc(SCC(=O)N(CCC#N)c2cc(C)cc(C)c2)cc1,"inconclusive: 39.8 µM [activator, single point]",–,–
Cc1cc(C)n(CC(=O)Nc2cc(F)ccc2F)c(=O)c1C#N,–,inconclusive: 41.6% [activator],–
Cc1ccc(O)c(Nc2nc3ccccc3c3nncn23)c1,–,inactive: -21.1%,–
CCOC(=O)N1CCN(C(=S)NC2CCCC2)CC1,–,inactive: -0.0122%,–
COCCn1c(=NC(=O)/C=C/c2cccs2)sc2cc(NC(C)=O)ccc21,–,inconclusive: 31.9% [activator],–
CCOc1ccc(N=Nc2c(=O)[nH]n3c(=O)c4c([nH]c23)CCCC4)cc1,–,inactive: -14.6%,–
Cc1cccc(-c2c3c(=O)n(C)c(=O)n(C)c3cn2-c2ccc(O)cc2)c1,"inconclusive: 39.8 µM [activator, single point]",–,–
CCN(CC)S(=O)(=O)c1ccc(Cl)c(C(=O)N2CCc3ccccc32)c1,–,inconclusive: -96.1% [activator] [at 57.5 µM],–
O=C(c1ccccc1F)N(Cc1ccccc1)Cc1ccccc1,"inconclusive: 141 µM [activator, single point]",–,–
CCOC(=O)c1c(C)oc2nc(C)nc(NCC3CCN(Cc4ccccc4C)CC3)c12,"inconclusive: 141 µM [activator, single point]",–,–
CCC(=O)N1c2ccccc2NC2=C(C(=O)CC(C)(C)C2)C1c1ccc(O)c(OC)c1 (stereo not drawn),"inconclusive: 56.2 µM [activator, partial curve, poor fit]",–,–
CCC(CO)NCc1ccc(Br)cc1 (stereo not drawn),"inconclusive: 25.1 µM [activator, partial curve, poor fit]",–,–
CCN1CCN(C(=O)c2ccc3c(c2)N(Cc2ccccc2)C(=O)c2ccccc2S3(=O)=O)CC1,"inconclusive: 25.1 µM [activator, partial curve, poor fit]",–,–
N#Cc1c(SCC(=O)Nc2nc3ccc(Br)cc3s2)sc2c(O)cc(=O)[nH]c12,–,inconclusive: 36.5% [activator],–
Cc1ccc([C@H]2C[C@H](n3cc(COC(=O)c4ccccc4)nn3)[C@@H](O)CN2C(=O)C2CCCCC2)cc1,–,inactive: -3%,–
Brc1cccc(OCCCN2CCCCCC2)c1,"inconclusive: 11.2 µM [activator, partial curve, poor fit]",–,–
COC(=O)C1C(=O)c2c([nH]c(C(=O)OCC3CCCO3)c2C)CC1C (stereo not drawn),–,inactive: -15%,–
CCc1sc(C(=O)NCCc2ccc(S(N)(=O)=O)cc2)cc1C,–,inconclusive: 8.77% [activator],–
CCSc1ncc(Cl)c(C(=O)Nc2c(C(=O)Nc3cccc(C)c3)oc3ccccc23)n1,"inconclusive: 56.2 µM [activator, partial curve, poor fit]",–,–
CCC(Cn1nnc2ccccc2c1=O)NC(=O)Nc1ccc(C)cc1C (stereo not drawn),"inconclusive: 141 µM [activator, single point]",–,–
CC(=O)c1ccc(NS(=O)(=O)c2cc(-c3cc(C)no3)ccc2C)cc1,–,–,inactive
CCN(CC)CCN(CC(=O)Nc1c(C)cc(C)cc1C)C(=O)c1ccccc1,"inconclusive: 11.2 µM [activator, partial curve, poor fit]",–,–

# A different layout for part of the listing above.
SMILES	Potency	activation	outcome
Cc1ccc(O)c(Nc2nc3ccccc3c3nncn23)c1	–	inactive: -21.1%	–
CCOC(=O)N1CCN(C(=S)NC2CCCC2)CC1	–	inactive: -0.0122%	–
COCCn1c(=NC(=O)/C=C/c2cccs2)sc2cc(NC(C)=O)ccc21	–	inconclusive: 31.9% [activator]	–
